In patent US10435385B2, “Amide derivatives, process for preparation thereof and use thereof as insecticide” (MITSUI CHEMICALS, INC., priority 2004, dated 2019):
Some entries share one result that the patent states for a list of compounds.

Columns and labels:
[1] = test system: diamondback moth (Plutella xylostella); test: Insecticidal testing against diamondback moth (cabbage leaf dip, second-stage larvae); type: in vivo; conditions: concentration of 100 ppm, survival rate investigated after 3 days, 25° C.
Method: (§1) Insecticidal Testing Against Diamondback Moth (Plutella xylostella) Cabbage leaves were immersed in a liquid comprising the testing compound to a predetermined concentration for 30 seconds and air-dried. They were placed in a 7-cm polyethylene cup, and the second-stage larvae of diamondback moth were left therein. The cup was placed in a constant-temperature room at 25° C., and the survival rate was investigated after 3 days. The test was carried out with two groups of 5 larvae per group. As a result, Compound No. (to be described later)

[2] = test system: common cutworm (Spodoptera litura); test: Insecticidal testing against common cutworm (cabbage leaf dip, second-stage larvae); type: in vivo; conditions: concentration of 100 ppm, survival rate investigated after 3 days, 25° C.
Method: as §1, with “Common Cutworm (Spodoptera litura)” for “Diamondback Moth (Plutella xylostella)”, “common cutworm” for “diamondback moth”

Structure (SMILES)	pesticidal rate [1]	pesticidal rate [2]
Cc1cc(C(F)(C(F)(F)F)C(F)(F)F)cc(C)c1NC(=O)c1cccc(NC(=O)c2cccc(C#N)c2)c1 [compound 29]	≥ 70%	≥ 70%
O=C(Nc1cccc(C(=O)Nc2c(Cl)cc(C(F)(C(F)(F)F)C(F)(F)F)cc2Cl)c1)c1ccccc1 [Compound No. 6]	≥ 70%	≥ 70%
O=C(Nc1cccc(C(=O)Nc2c(I)cc(SC(F)(F)C(F)(F)C(F)(F)F)cc2I)c1)c1ccccc1 [compound 327]	≥ 70%	≥ 70%
O=C(Nc1c(Cl)cc(C(F)(F)C(F)(F)F)cc1Cl)c1cccc(NC(=O)c2ccccc2F)c1 [Compound No. 3]	≥ 70%	≥ 70%
Cc1cc(OC(C(F)(F)F)C(F)(F)F)nc(Cl)c1NC(=O)c1cccc(NC(=O)c2ccccc2)c1 [Compound No. 464, N-[2-chloro-4-methyl-6-(2,2,2-trifluoro-1-trifluoromethylethoxy)pyridin-3-yl] 3-(benzoylamino)benzamide]	≥ 70%	≥ 70%
Cc1cc(C(F)(C(F)(F)F)C(F)(F)F)cc(C)c1NC(=O)c1ccc(F)c(NC(=O)c2ccc(F)cc2F)c1 [compound 656]	≥ 70%	≥ 70%
Cc1cc(C(F)(C(F)(F)F)C(F)(F)F)cc(C)c1NC(=O)c1cccc(N(C)C(=O)c2ccccc2)c1 [compound 1001]	≥ 70%	≥ 70%
O=C(Nc1c(Br)cc(S(=O)(=O)C(F)(F)F)cc1Br)c1cccc(NC(=O)c2c(F)cccc2F)c1 [compound 377]	≥ 70%	≥ 70%
Cc1cc(C(F)(C(F)(F)F)C(F)(F)F)cc(C)c1NC(=O)c1cccc(NC(=O)c2c(C)cccc2C)c1 [compound 58]	≥ 70%	≥ 70%
Cc1ccc(C(=O)Nc2cccc(C(=O)Nc3c(C)cc(C(F)(C(F)(F)F)C(F)(F)F)cc3C)c2)cc1 [compound 13]	≥ 70%	≥ 70%
CCc1cc(C(F)(C(F)(F)F)C(F)(F)F)cc(Cl)c1NC(=O)c1cccc(NC(=O)c2ccccc2)c1 [compound 168]	≥ 70%	≥ 70%
Cc1cc(C(F)(C(F)(F)F)C(F)(F)F)cc(C)c1NC(=O)c1cccc(NC(=O)Sc2ccccc2)c1 [Compound No. 2202, N-(2,6-dimethyl-4-heptafluoroisopropyl)phenyl 3-(phenylthiocarbonylamino)benzamide]	≥ 70%	≥ 70%
Cc1cc(C(F)(C(F)(F)F)C(F)(F)F)cc(C)c1NC(=O)c1cccc(NC(=O)c2c(F)cccc2Cl)c1 [compound 84]	≥ 70%	≥ 70%
Cc1cc(SC(F)(F)C(F)(F)C(F)(F)F)cc(C)c1NC(=O)c1cccc(NC(=O)c2ccccc2F)c1 [compound 261]	≥ 70%	≥ 70%
N#Cc1ccc(C(=O)Nc2cccc(C(=O)Nc3c(Br)cc(SC(F)(F)C(F)(F)C(F)(F)F)cc3Br)c2F)cc1 [compound 719]	≥ 70%	≥ 70%
Cc1cc(C(F)(C(F)(F)F)C(F)(F)F)cc(C)c1NC(=O)c1cccc(NC(=O)c2cccnc2F)c1F [compound 638]	≥ 70%	≥ 70%
Cc1cc(C(F)(C(F)(F)F)C(F)(F)C(F)(F)F)cc(C)c1NC(=O)c1cccc(NC(=O)c2ccc(C#N)cc2)c1F (stereo not drawn) [compound 676]	≥ 70%	≥ 70%
Cc1cc(C(F)(C(F)(F)F)C(F)(F)F)cc(C)c1NC(=O)c1cccc(NC(=O)c2ccc(Cl)c(Cl)c2)c1 [compound 69]	≥ 70%	≥ 70%

Structure (SMILES)	pesticidal rate [1]	pesticidal rate [2]
CN(C(=O)c1ccccc1F)c1cccc(C(=O)N(C)c2c(Br)cc(SC(F)(F)C(F)(F)C(F)(F)F)cc2Br)c1 [compound 1617]	≥ 70%	≥ 70%
Cc1cccc(C(=O)Nc2cccc(C(=O)Nc3c(C)cc(C(F)(C(F)(F)F)C(F)(F)F)cc3C)c2F)c1 [compound 603]	≥ 70%	≥ 70%
Cc1cc(OC(C(F)(F)F)C(F)(F)F)nc(Br)c1NC(=O)c1cccc(NC(=O)c2ccccc2)c1 [compound 465]	≥ 70%	≥ 70%
COc1ccc(C(=O)Nc2cccc(C(=O)Nc3c(C)cc(C(F)(C(F)(F)F)C(F)(F)F)cc3C)c2)cc1 [compound 43]	≥ 70%	≥ 70%
CC(=O)N(C(=O)c1cccc(NC(=O)c2ccccc2)c1)c1c(C)cc(C(F)(C(F)(F)F)C(F)(F)F)cc1C [compound 1484]	≥ 70%	≥ 70%
CCC(C)c1cc(C(F)(C(F)(F)F)C(F)(F)F)cc(Br)c1NC(=O)c1cccc(NC(=O)c2ccccc2)c1 (stereo not drawn) [compound 194]	≥ 70%	≥ 70%
COc1cc([N+](=O)[O-])ccc1C(=O)Nc1cccc(C(=O)Nc2c(C)cc(C(F)(C(F)(F)F)C(F)(F)F)cc2C)c1 [compound 89]	≥ 70%	≥ 70%
Cc1cc(OC(F)(C(F)(F)F)C(F)(F)F)nc(Br)c1NC(=O)c1cccc(NC(=O)c2ccccc2)c1 [compound 461]	≥ 70%	≥ 70%
Cc1cc(C(F)(C(F)(F)F)C(F)(F)F)cc(C)c1NC(=O)c1cccc(NC(=O)c2cccc(F)c2F)c1 [compound 59]	≥ 70%	≥ 70%
C[S+]([O-])c1cc(C(F)(C(F)(F)F)C(F)(F)F)cc(Br)c1NC(=O)c1cccc(NC(=O)c2ccccc2)c1 (stereo not drawn) [Compound No. 200]	≥ 70%	≥ 70%
Cc1cc(C(F)(C(F)(F)F)C(F)(F)F)cc(C)c1NC(=O)c1cccc(NC(=O)c2ccc(Cl)cc2F)c1F [compound 631]	≥ 70%	≥ 70%
Cc1cc(OC(C(F)(F)F)C(F)(F)F)nc(C)c1NC(=O)c1cccc(NC(=O)c2ccccc2)c1 [compound 463]	≥ 70%	≥ 70%
Cc1cc(C(F)(C(F)(F)F)C(F)(F)F)cc(C)c1NC(=O)c1cccc(NC(=O)c2cccs2)c1 [compound 132]	≥ 70%	≥ 70%
Cc1cc(C(F)(C(F)(F)F)C(F)(F)F)cc(C)c1NC(=O)c1cccc(NC(=O)c2ccc(Cl)cc2Cl)c1 [compound 66]	≥ 70%	≥ 70%
Cc1cc(C(F)(C(F)(F)F)C(F)(F)F)cc(C)c1NC(=O)c1cccc(NC(=O)c2ccc([N+](=O)[O-])cc2Cl)c1 [compound 82]	≥ 70%	≥ 70%
Cc1cc(C(F)(C(F)(F)F)C(F)(F)F)cc(C)c1NC(=O)c1cccc(NC(=O)c2ccc(Cl)nc2)c1 [compound 109]	≥ 70%	≥ 70%
O=C(Nc1cccc(C(=O)Nc2c(Br)cc(S(=O)(=O)C(F)(F)F)cc2Br)c1)c1ccccc1 [compound 376]	≥ 70%	≥ 70%
CCN(C(=O)c1cccc(NC(=O)c2ccccc2)c1)c1c(C)cc(C(F)(C(F)(F)F)C(F)(F)F)cc1C [compound 1482]	≥ 70%	≥ 70%
